Source: paper PMC6174329, “Functional Characterization of Arabidopsis PHL4 in Plant Response to Phosphate Starvation”
Results are given in words; binding and its absence hold for the method and conditions named. Binding seen in cells or lysates may run through a third protein. Some results given as binding are weak or reduced against the parent protein; the word gives no strength. Tags and fused reporters may be left off the sequences shown.

By UniProt entry, the sequences of proteins in these tests, tags left out.
UniProt Q94CL7: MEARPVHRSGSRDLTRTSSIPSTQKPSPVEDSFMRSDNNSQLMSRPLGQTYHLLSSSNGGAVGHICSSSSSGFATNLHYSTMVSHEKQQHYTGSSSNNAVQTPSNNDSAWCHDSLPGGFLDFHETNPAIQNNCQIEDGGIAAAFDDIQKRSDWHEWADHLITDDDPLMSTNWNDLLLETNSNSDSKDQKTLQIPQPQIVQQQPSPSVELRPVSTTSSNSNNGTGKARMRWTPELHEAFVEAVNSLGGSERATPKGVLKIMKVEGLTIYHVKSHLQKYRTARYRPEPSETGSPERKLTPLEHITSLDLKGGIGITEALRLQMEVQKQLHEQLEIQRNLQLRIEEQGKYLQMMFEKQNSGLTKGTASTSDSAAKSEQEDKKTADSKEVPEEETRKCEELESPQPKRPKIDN

What was measured:
[1] = molecular target: T1, PHL3 (PHR1-LIKE 3), LCI fusion used as positive control (Arabidopsis thaliana) (UniProt Q8LAJ7); test: split reporter; luciferase complementation imaging (LCI); constructs co-infiltrated into leaves of N. benthamiana, LUC signals recorded 2 d after infiltration
T1 sequence: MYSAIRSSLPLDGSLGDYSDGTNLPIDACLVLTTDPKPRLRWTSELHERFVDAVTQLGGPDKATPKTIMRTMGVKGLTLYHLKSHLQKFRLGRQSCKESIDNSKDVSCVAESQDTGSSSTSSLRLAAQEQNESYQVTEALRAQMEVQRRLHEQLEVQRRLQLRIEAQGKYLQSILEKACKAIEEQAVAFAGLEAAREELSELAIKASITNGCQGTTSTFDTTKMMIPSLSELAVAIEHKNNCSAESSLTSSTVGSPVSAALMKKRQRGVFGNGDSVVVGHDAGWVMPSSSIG

[2] = molecular target: cLUC-PHR1 (PHR1, PHOSPHATE STARVATION RESPONSE 1, fused with the C-terminal half of luciferase) (Arabidopsis thaliana) (UniProt Q94CL7); test: as above
[3] = molecular target: cYFP-PHR1 (Arabidopsis thaliana) (UniProt Q94CL7); test: split reporter; BiFC; PHL4-nYFP and cYFP-PHR1 co-infiltrated into leaves of N. benthamiana, YFP fluorescence detected 2 days after infiltration by confocal microscopy, nuclei shown by DAPI

B1: PHL2 (PHR1-LIKE 2), LCI fusion used as positive control (protein, UniProt Q94A57 1-295)
chain: MYSAIRSLPLDGGHVGGDYHGPLDGTNLPGDACLVLTTDPKPRLRWTTELHERFVDAVTQLGGPDKATPKTIMRTMGVKGLTLYHLKSHLQKFRLGRQAGKESTENSKDASCVGESQDTGSSSTSSMRMAQQEQNEGYQVTEALRAQMEVQRRLHDQLEVQRRLQLRIEAQGKYLQSILEKACKAFDEQAATFAGLEAAREELSELAIKVSNSSQGTSVPYFDATKMMMMPSLSELAVAIDNKNNITTNCSVESSLTSITHGSSISAASMKKRQRGDNLGVGYESGWIMPSSTIG
[1]
  binding: binds

B2: PHL4-nLUC (PHL4, PHR1-LIKE 4, fused with the N-terminal half of luciferase) (protein, UniProt Q8GXC2 1-397)
chain: MIPNDDDDANSMKNYPLNDDDANSMKNYPLNDDDANSMENYPLRSIPTELSHTCSLIPPSLPNPSEAAADMSFNSELNQIMARPCDMLPANGGAVGHNPFLEPGFNCPETTDWIPSPLPHIYFPSGSPNLIMEDGVIDEIHKQSDLPLWYDDLITTDEDPLMSSILGDLLLDTNFNSASKVQQPSMQSQIQQPQAVLQQPSSCVELRPLDRTVSSNSNNNSNSNNAAAAAKGRMRWTPELHEVFVDAVNQLGGSNEATPKGVLKHMKVEGLTIFHVKSHLQKYRTAKYIPVPSEGSPEARLTPLEQITSDDTKRGIDITETLRIQMEHQKKLHEQLESLRTMQLRIEEQGKALLMMIEKQNMGFGGPEQGEKTSAKTPENGSEESESPRPKRPRNEE
[2]
  binding: binds

B3: PHL4-nYFP (protein, UniProt Q8GXC2 1-397)
chain: MIPNDDDDANSMKNYPLNDDDANSMKNYPLNDDDANSMENYPLRSIPTELSHTCSLIPPSLPNPSEAAADMSFNSELNQIMARPCDMLPANGGAVGHNPFLEPGFNCPETTDWIPSPLPHIYFPSGSPNLIMEDGVIDEIHKQSDLPLWYDDLITTDEDPLMSSILGDLLLDTNFNSASKVQQPSMQSQIQQPQAVLQQPSSCVELRPLDRTVSSNSNNNSNSNNAAAAAKGRMRWTPELHEVFVDAVNQLGGSNEATPKGVLKHMKVEGLTIFHVKSHLQKYRTAKYIPVPSEGSPEARLTPLEQITSDDTKRGIDITETLRIQMEHQKKLHEQLESLRTMQLRIEEQGKALLMMIEKQNMGFGGPEQGEKTSAKTPENGSEESESPRPKRPRNEE
[3]
  binding: binds
